According to PubChem BioAssay (NCATS):
The shares of active, inactive and inconclusive entries below differ from those in the screen. Potencies of inconclusive entries are doubtful fits and often do not repeat. The source made the active and inactive calls. Calls follow the shape of the dose curve; as a rule, active = well fitted cell-killing curve with a large enough effect; inconclusive = small, poorly fitted or top-dose-only effect, or effect the other way; inactive = no such curve, though single readings can be large or run the other way.

What was measured:
[1] = Quantitative High-Throughput drug screen in 47 multiple myeloma cell lines against the NCATS MIPE library collection: Delta47_JCRB cell viability assay (AID 1918925; also: nearly all actives have a fitted effect of over 45% in size;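 as to viability (% of DMSO): 0% = media-only wells and 100% = DMSO-only wells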); conditions: Delta47 myeloma viability, CellTiter-Glo ATP, 48 h; viability (% of DMSO): at 45.8 µM (top of the series) unless noted
Method in brief: (§1)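 Approved and investigational drugs from MIPE 4.0 were added by pin tool to 500 cells per well. After 48 hours at 37C, ATP-based CellTiter-Glo luminescence indicated remaining viability.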

[2] = Quantitative High-Throughput drug screen in 47 multiple myeloma cell lines against the NCATS MIPE library collection: ARP1_JJKsccF8 cell viability assay (AID 1918928; also: nearly all actives have a fitted effect of over 40% in size;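 as to viability: 100% = DMSO only wells and 0% = medium only wells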); conditions: ARP1 myeloma cells viability, CellTiter-Glo ATP, 48 h; viability: at 45.8 µM (top of the series)
Method in brief: (§2)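 Each line was plated at 500 cells/well and treated 48 h with library drugs. Viability came from CellTiter-Glo luminescence relative to DMSO and cell-free medium controls.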

[3] = Quantitative High-Throughput drug screen in 47 multiple myeloma cell lines against the NCATS MIPE library collection: KMM1_JCRB cell viability assay (AID 1918960); conditions: KMM1 myeloma viability, CellTiter-Glo ATP luminescence, 48 h; viability (% of DMSO): at 45.8 µM (top of the series); also: nearly all actives have a fitted effect of over 30% in size;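 as to viability (% of DMSO): 100% = DMSO-treated cells and 0% = medium-only wells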
Method in brief: as §2

[4] = Quantitative High-Throughput drug screen in 47 multiple myeloma cell lines against the NCATS MIPE library collection: Karpas417_ECACC cell viability assay (AID 1918961); conditions: Karpas417 myeloma viability, CellTiter-Glo ATP luminescence, 48 h; viability (% of DMSO): at 45.8 µM (top of the series) unless noted;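 as to viability (% of DMSO): 100% = DMSO only wells and 0% = media only wells without cells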
Method in brief: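 Inhibition of cell viability is measured here. Each line was plated at 500 cells per well, treated with MIPE 4.0 drugs, kept 48 hours at 37C, then assayed for ATP content by CellTiter-Glo luminescence.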

[5] = Quantitative High-Throughput drug screen in 47 multiple myeloma cell lines against the NCATS MIPE library collection: Karpas620_DSMZ cell viability assay (AID 1918959); also: nearly all actives have a fitted effect of over 30% in size;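 as to viability (% of DMSO): 100% = DMSO-only wells and 0% = cell-free media-only wells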
Method in brief: as §1

[6] = Quantitative High-Throughput drug screen in 47 multiple myeloma cell lines against the NCATS MIPE library collection: KHM11_PLB cell viability assay (AID 1918962); conditions: KHM11 myeloma cell viability, CellTiter-Glo ATP luminescence, 48 h; viability, % of DMSO control: at 45.8 µM (top of the series); also: nearly all actives have a fitted effect of over 35% in size;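 as to viability, % of DMSO control: 0% = media only wells and 100% = DMSO treated cells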
Method in brief: as §1

[7] = Quantitative High-Throughput drug screen in 47 multiple myeloma cell lines against the NCATS MIPE library collection: ARD_JJKsccE7 cell viability assay (AID 1918929;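 as to viability: 100% = DMSO-only wells and 0% = media-only wells without cells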)
Method in brief: as §1

[8] = Quantitative High-Throughput drug screen in 47 multiple myeloma cell lines against the NCATS MIPE library collection: EJM_DSMZ cell viability assay (AID 1918926; also: nearly all actives have a fitted effect of over 30% in size;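 as to viability, % of control: 100% = DMSO-only wells and 0% = media-only wells without cells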); conditions: EJM myeloma cell viability, CellTiter-Glo ATP, 48 h; viability, % of control: at 45.8 µM (top of the series)
Method in brief: as §1

[9] = Quantitative High-Throughput drug screen in 47 multiple myeloma cell lines against the NCATS MIPE library collection: AMO1_DSMZ cell viability assay (AID 1918927; also: nearly all actives have a fitted effect of over 30% in size;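 as to viability, % of DMSO: 100% = DMSO only wells and 0% = cell-free media only wells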)
Method in brief: as §1
Potency is read from the fitted curve at half-maximal effect.

Compound: NCCc1cnc[nH]1
- Potency [1]: inconclusive: 0.001 µM
- Potency [2]: inactive
- Potency [3]: inactive
- Potency [4]: inconclusive: 1.32 µM [cytotoxic, full curve, poor fit]

Compound: CC(=O)O[C@]1(C(C)=O)CC[C@H]2[C@@H]3C=C(Cl)C4=CC(=O)[C@@H]5C[C@H]5[C@]4(C)[C@@H]3CC[C@@]21C
- Potency [1]: active: 8.33 µM
- Potency [2]: inconclusive: 26.4 µM [cytotoxic, single point]
- Potency [5]: inconclusive: 10.5 µM [cytotoxic, partial curve, poor fit]
- viability (% of DMSO) [4]: active: 112%
- Potency [6]: inconclusive: 29.6 µM [cytotoxic, single point]

Compound: Nc1nc(-c2nn(Cc3ccccc3F)c3ncccc23)nc(N)c1N1CCOCC1
- Potency [1]: inconclusive: 37.2 µM [cytotoxic, single point]
- Potency [7]: inconclusive: 23.5 µM [cytotoxic, single point]
- Potency [5]: inconclusive: 37.2 µM [cytotoxic, single point]
- Potency [3]: inconclusive: 20.9 µM [cytotoxic, partial curve]
- viability (% of DMSO) [4]: active: 86.8%
- Potency [6]: inconclusive: 5.26 µM [rising, partial curve]

Compound: O=c1ccc2ccc(O)c(O)c2o1
- Potency [8]: inconclusive: 16.6 µM [cytotoxic, partial curve]
- Potency [9]: inconclusive: 18.7 µM [cytotoxic, partial curve]
- Potency [2]: inconclusive: 37.2 µM [cytotoxic, single point]
- Potency [7]: inactive
- Potency [3]: inconclusive: 37.2 µM [cytotoxic, single point]
- Potency [4]: inconclusive: 37.2 µM [cytotoxic, single point]

Compound: CCOC(=O)c1ccc(OC(=O)CCCCCN=C(N)N)cc1
- Potency [1]: inactive
- Potency [7]: inactive
- Potency [4]: inactive
- Potency [6]: inconclusive: 18.7 µM [rising, partial curve]

Compound: CN(C)[C@@H](CCOc1cccc2ccccc12)c1ccccc1
- Potency [8]: inconclusive: 0.0042 µM [cytotoxic, full curve, poor fit]
- Potency [9]: inconclusive: 9.35 µM [cytotoxic, partial curve, poor fit]
- Potency [7]: inconclusive: 8.33 µM [cytotoxic, partial curve, poor fit]
- Potency [5]: inactive
- Potency [3]: inconclusive: 11.8 µM [cytotoxic, single point]
- Potency [4]: inconclusive: 0.0015 µM [cytotoxic, full curve, poor fit]
- Potency [6]: inconclusive: 37.2 µM [cytotoxic, single point]

Compound: NC(=O)c1ncn([C@@H]2O[C@H](CO)[C@@H](O)[C@@H]2O)c1O
- Potency [1]: inactive
- Potency [4]: inconclusive: 10.5 µM [rising, single point]
- Potency [6]: inconclusive: 6.62 µM [cytotoxic, partial curve, poor fit]

Compound: CCOC(=O)C(C)(C)Oc1ccc(Cl)cc1
- Potency [8]: inactive
- Potency [9]: inconclusive: 0.0074 µM [cytotoxic, full curve, poor fit]
- Potency [7]: inconclusive: 0.003 µM [rising, full curve, poor fit]
- Potency [3]: inactive
- Potency [4]: inconclusive: 10.5 µM [rising, partial curve, poor fit]
- Potency [6]: inactive

Compound: O=C(C=Cc1ccc(/C=C/C(=O)Nc2ccc(C3=NCCN3)cc2)cc1)Nc1ccc(C2=NCCN2)cc1
- Potency [8]: inactive
- Potency [9]: inconclusive: 14.8 µM [rising, partial curve, poor fit]
- Potency [2]: inactive
- Potency [7]: inactive
- Potency [6]: inconclusive: 10.5 µM [rising, partial curve]

Compound: COC[C@@H](c1ccc(C(F)(F)F)cc1)N1CCN(C2(C)CCN(C(=O)c3c(C)ncnc3C)CC2)C[C@H]1C
- Potency [8]: inactive
- Potency [9]: active: 16.6 µM
- Potency [2]: inactive
- Potency [7]: inconclusive: 33.2 µM [cytotoxic, partial curve, poor fit]
- Potency [5]: inconclusive: 37.2 µM [cytotoxic, single point]

Compound: O=C(Nc1c(Cl)cncc1Cl)c1ccc(OC(F)F)c(OCC2CC2)c1
- Potency [1]: active: 26.4 µM
- Potency [2]: inactive
- Potency [7]: inactive
- Potency [5]: inactive
- Potency [4]: inconclusive: 33.2 µM [rising, partial curve, poor fit]
- Potency [6]: inconclusive: 0.0053 µM [rising, full curve, poor fit]

Compound: O=C(O)c1cc(=O)[nH]c(=O)[nH]1
- Potency [1]: inactive
- Potency [2]: inconclusive: 37.2 µM [cytotoxic, single point]
- Potency [4]: inactive
- Potency [6]: inactive

Compound: CN(N=O)C(=O)N[C@H]1C(O)OC(CO)[C@@H](O)[C@H]1O (stereo partly drawn)
- Potency [8]: inconclusive: 0.0026 µM [rising, full curve, poor fit]
- Potency [9]: inactive
- Potency [2]: inactive
- Potency [5]: inactive
- Potency [4]: inconclusive: 0.0118 µM [cytotoxic, full curve, poor fit]

Compound: Cn1c(=O)c2[nH]cnc2n(C)c1=O
- Potency [1]: inactive
- Potency [2]: inactive
- Potency [7]: inconclusive: 0.059 µM [cytotoxic, full curve, poor fit]
- Potency [5]: inactive
- Potency [4]: inconclusive: 0.235 µM [cytotoxic, full curve, poor fit]

Compound: C#CCN[C@@H]1CCc2ccccc21
- Potency [8]: inconclusive: 0.0026 µM [cytotoxic, full curve, poor fit]
- Potency [9]: inactive
- Potency [2]: inactive
- Potency [7]: inactive
- Potency [3]: inactive
- Potency [4]: inactive
- Potency [6]: inactive

Compound: O=C1c2c(O)cc(O)cc2OC(c2ccc(O)c(O)c2)C1O (stereo not drawn)
- Potency [1]: inactive
- Potency [7]: inconclusive: 0.0017 µM [cytotoxic, full curve, poor fit]
- Potency [3]: inactive
- Potency [4]: inconclusive: 0.372 µM [cytotoxic, full curve, poor fit]
- Potency [6]: inconclusive: 9.35 µM [rising, partial curve, poor fit]

Compound: CC1(C)O[C@H]2C[C@@H]3[C@H]4CCC5=CC(=O)C=C[C@]5(C)[C@@]4(F)[C@@H](O)C[C@]3(C)[C@]2(C(=O)CO)O1
- Potency [9]: inconclusive: 29.6 µM [cytotoxic, single point]
- Potency [2]: inconclusive: 0.0418 µM [cytotoxic, full curve]
- Potency [7]: active: 0.0037 µM
- Potency [5]: inactive
- Potency [4]: active: 0.0118 µM
- Potency [6]: inconclusive: 0.0037 µM [rising, full curve, poor fit]

Compound: CC(=O)SCC(Cc1ccccc1)C(=O)NCC(=O)OCc1ccccc1 (stereo not drawn)
- Potency [4]: inconclusive: 5.9 µM [cytotoxic, full curve, poor fit]
- Potency [6]: active: 7.43 µM

Compound: Cc1ccccc1-n1c(Cn2nc(-c3cccc(O)c3)c3c(N)ncnc32)nc2cccc(C)c2c1=O
- Potency [8]: inconclusive: 11.8 µM [cytotoxic, partial curve]
- Potency [3]: active: 0.935 µM
- Potency [4]: active: 4.18 µM
- Potency [6]: active: 18.7 µM

Compound: C[C@]12CC[C@H](O)CC1=CC[C@@H]1[C@H]2CC[C@]2(C)C(c3cccnc3)=CC[C@H]12
- Potency [2]: inactive
- Potency [7]: inconclusive: 7.24 µM [rising, partial curve, poor fit]
- Potency [3]: inactive
- Potency [4]: inconclusive: 6.45 µM [rising, partial curve, poor fit]
- Potency [6]: inconclusive: 1.82 µM [cytotoxic, partial curve, poor fit]

Compound: COC(=O)N[C@H](C(=O)N1CCC[C@@H]1c1ncc(-c2ccc(-c3ccc(-c4cnc([C@@H]5CCCN5C(=O)[C@@H](NC(=O)OC)C(C)C)[nH]4)cc3)cc2)[nH]1)C(C)C
- Potency [8]: inconclusive: 33.2 µM [cytotoxic, single point]
- Potency [9]: inconclusive: 29.6 µM [cytotoxic, single point]
- Potency [5]: active: 16.6 µM
- Potency [4]: inconclusive: 20.9 µM [cytotoxic, partial curve, poor fit]
- Potency [6]: inconclusive: 33.2 µM [cytotoxic, partial curve, poor fit]

Compound: OCCCNc1cc(-c2ccnc(Nc3cccc(Cl)c3)n2)ccn1
- Potency [2]: active: 0.105 µM
- Potency [5]: active: 0.0662 µM
- Potency [4]: active: 0.0469 µM

Compound: CCOC(=O)C=C[C@H](C[C@@H]1CCNC1=O)NC(=O)[C@@H](CC(=O)[C@@H](NC(=O)c1cc(C)on1)C(C)C)Cc1ccc(F)cc1
- Potency [9]: inconclusive: 0.0017 µM [rising, full curve, poor fit]
- Potency [2]: inactive
- Potency [7]: inactive
- Potency [5]: inactive
- Potency [4]: inactive
- Potency [6]: inconclusive: 0.418 µM [rising, full curve]

Compound: CCOC(=O)O[C@]1(C(=O)OCCl)CC[C@@H]2[C@H]3CCC4=CC(=O)C=C[C@]4(C)[C@@H]3[C@@H](O)C[C@@]21C
- Potency [9]: inactive
- Potency [7]: inconclusive: 16.6 µM [cytotoxic, partial curve, poor fit]
- Potency [3]: inconclusive: 8.33 µM [cytotoxic, partial curve, poor fit]
- viability (% of DMSO) [4]: active: 78.2%
- Potency [6]: inactive

Compound: CN(C)Cc1ccc(-c2nc3cccc4c3n2CCNC4=O)cc1
- Potency [9]: active: 18.7 µM
- Potency [2]: inconclusive: 33.2 µM [cytotoxic, single point]
- Potency [7]: active: 29.6 µM
- Potency [4]: active: 14.8 µM

Compound: C=C(C)[C@@H]1CC[C@]2(C)CC[C@]3(C)[C@H](CC[C@@H]4[C@@]5(C)CC[C@H](O)C(C)(C)[C@H]5CC[C@]43C)[C@@H]12
- Potency [9]: inactive
- Potency [2]: inconclusive: 0.001 µM
- Potency [7]: inconclusive: 0.0015 µM [cytotoxic, full curve, poor fit]
- Potency [3]: inactive
- Potency [6]: inconclusive: 0.0235 µM [rising, full curve, poor fit]
